Experimental findings from doi:10.1101/589754 are described below.

Construct, isoform or probe ends are uncertain for at least one entry. At least one verdict rests on a figure or table, not on a statement of the authors. Tags and fusion partners may be left off the protein sequences shown.

For the data set, the target named is T1, His6-mPOU WT (POU6F1/Brn-5), unphosphorylated or mock-phosphorylated (UniProt Q14863).
T1 sequence (looked up, limits assumed): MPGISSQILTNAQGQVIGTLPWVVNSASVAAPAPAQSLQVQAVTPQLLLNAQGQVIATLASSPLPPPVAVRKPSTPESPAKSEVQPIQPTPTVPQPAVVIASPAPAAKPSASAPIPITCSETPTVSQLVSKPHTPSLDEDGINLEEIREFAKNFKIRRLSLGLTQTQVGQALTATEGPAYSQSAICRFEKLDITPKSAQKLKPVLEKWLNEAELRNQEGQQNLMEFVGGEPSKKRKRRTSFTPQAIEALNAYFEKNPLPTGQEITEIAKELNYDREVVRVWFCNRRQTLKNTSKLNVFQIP
Put plainly: EMSA. Background: In EMSA bound probe runs differently from free probe, usually more slowly.

Consider “GATCTGCTCCTGCATGCCTAATAGG (double strand) [Brn5 (mPOU) promoter probe]”, for which the binding result is given as “binds” (WT, mutant comparison) and “binds” (mock phosphorylation).
